In the supplement of paper PMC6078165:
The reference is the same well before dosing, and untreated signal decays as well.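 Fibroblast labels name human fibroblasts: mostly primary ones from tissues such as uterus (C12385, HUF), lung (H6013), bone (Hs27A), adrenal (HADF) and skin (WS1), plus mammary HMF and breast cancer-associated Hs343T. The cancer cells are basal-like or mesenchymal-like triple-negative breast cancer lines. The paper calls a changed response a hit when it shifts by more than 3x the replicate standard deviation. The tissue of the other fibroblasts is not given here.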

Tested on: HCC1143
Test: relative JC-1 red fluorescence (viability) vs pre-drug, coculture with fibroblast (fraction); higher = more viable cancer cells
Experimental: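 JC-1 labelled TNBC cells cocultured 1:1 (1,500 cells each) with CellTrace Violet stained primary or stromal fibroblasts in 384-well plates in FluoroBrite medium, treated with one of 42 anticancer drugs at 0.1, 1, 10 or 100 uM. JC-1 red fluorescence (mitochondrial integrity in cancer cells only) was read by plate reader every 8 h for 72 h. Values are normalised to each well's pre-drug value. The stock of one drug was tenfold lower, so its dose labels may be too high.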

CCCCCOC(=O)Nc1nc(=O)n([C@@H]2O[C@H](C)[C@@H](O)[C@H]2O)cc1F [Capecitabine]
relative JC-1 red fluorescence
Conditions	8 h	16 h	24 h	32 h	40 h	48 h	56 h	64 h	72 h
10 µM, coculture fibroblast: C12385	0.86744	0.758	0.6886	0.615	0.559	0.512	0.47	0.428	0.405
10 µM, coculture fibroblast: H6013	0.776	0.692	0.658	0.647	0.591	0.585	0.554	0.532	0.496
10 µM, coculture fibroblast: H6019	0.799	0.714	0.661	0.602	0.565	0.532	0.481	0.427	0.389
10 µM, coculture fibroblast: H6076	0.814	0.8806	0.8078	0.6841	0.68	0.648	0.604	0.563	0.554
10 µM, coculture fibroblast: H6231	0.8426	0.925	0.795	0.594	0.667	0.619	0.576	0.525	0.491
10 µM, coculture fibroblast: HADF	0.706	0.62	0.589	0.589	0.493	0.464	0.426	0.4	0.392
10 µM, coculture fibroblast: HCFa	0.779	0.6657	0.62423	0.605	0.51	0.488	0.436	0.397	0.376
10 µM, coculture fibroblast: HCPF	0.827	0.848	0.7698	0.636	0.663	0.618	0.584	0.548	0.523
10 µM, coculture fibroblast: HHSteC	0.902	0.887	0.894	0.859	0.754	0.824	0.791	0.769	0.733
10 µM, coculture fibroblast: HMF	0.827	0.8535	0.785	0.685	0.692	0.662	0.621	0.591	0.567
10 µM, coculture fibroblast: HPFa	0.932	0.83	0.767	0.676	0.618	0.581	0.53	0.486	0.45
10 µM, coculture fibroblast: HUF	0.879	0.766	0.6649	0.5809	0.523	0.4815	0.431	0.395	0.364
10 µM, coculture fibroblast: Hs5	0.874	0.827	0.908	0.83	0.793	0.754	0.718	0.676	0.655
10 µM, coculture fibroblast: Hs27A	0.695	0.62	0.58	0.605	0.479	0.462	0.42	0.39	0.39
10 µM, coculture fibroblast: Hs343T	0.825	0.8837	0.803	0.664	0.689	0.644	0.59	0.549	0.511
10 µM, coculture fibroblast: WS1	0.861	0.774	0.727	0.641	0.576	0.536	0.49	0.441	0.414
100 µM, coculture fibroblast: C12385	0.879	0.787	0.735	0.675	0.612	0.564	0.532	0.489	0.461
100 µM, coculture fibroblast: H6013	0.783	0.674	0.635	0.618	0.558	0.54774	0.5184	0.507	0.477
100 µM, coculture fibroblast: H6019	0.83	0.766	0.734	0.679	0.657	0.64	0.614	0.584	0.562
100 µM, coculture fibroblast: H6076	0.805	0.809	0.7541	0.691	0.657	0.6462	0.62	0.597	0.592
100 µM, coculture fibroblast: H6231	0.8469	0.845	0.748	0.677	0.661	0.631	0.597	0.563	0.551
100 µM, coculture fibroblast: HADF	0.7504	0.6623	0.6207	0.6269	0.529	0.499	0.468	0.442	0.43
100 µM, coculture fibroblast: HCFa	0.789	0.675	0.637	0.617	0.519	0.489	0.443	0.41	0.392
100 µM, coculture fibroblast: HCPF	0.837	0.809	0.768	0.7	0.68	0.65	0.624	0.598	0.584
100 µM, coculture fibroblast: HHSteC	0.8268	0.7185	0.6821	0.6336	0.554	0.53	0.485	0.456	0.406
100 µM, coculture fibroblast: HMF	0.827	0.841	0.812	0.753	0.746	0.727	0.691	0.668	0.642
100 µM, coculture fibroblast: HPFa	0.924	0.812	0.762	0.674	0.622	0.584	0.528	0.494	0.458
100 µM, coculture fibroblast: HUF	0.891	0.808	0.713	0.64	0.589	0.552	0.497	0.458	0.427
100 µM, coculture fibroblast: Hs5	0.88	0.872	0.824	0.7793	0.721	0.6934	0.6636	0.6351	0.632
100 µM, coculture fibroblast: Hs27A	0.728	0.652	0.619	0.643	0.511	0.495	0.462	0.451	0.474
100 µM, coculture fibroblast: Hs343T	0.80283	0.806	0.74	0.678	0.6401	0.603	0.567	0.542	0.514
100 µM, coculture fibroblast: WS1	0.836	0.7358	0.684	0.62	0.568	0.535	0.494	0.4611	0.438
